{"source": "PubChem BioAssay AID743454 (Peter MacCallum Cancer Centre, 2014)", "screen": "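Search for knock-downs that restore vorinostat killing in resistant colon cancer cells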 (primary screen)", "cells": "human HCT116-VR colon cancer cells, selected for vorinostat resistance", "reagent": "siRNA pool against human genes, 40 nM siRNA pool", "timing": "vorinostat for 24 h, read-out about 72 h after transfection", "conditions": "vorinostat at 2.5 µM final", "detection": "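Cell viability by CellTiter-Fluor and caspase 3/7 activity by luminescence, each scaled to mock wells per plate, duplicates averaged, then robust z-scored over all plates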", "reading the numbers": "viability robust z-score: higher = more viable cells than screen typical; caspase robust z-score: higher = more caspase 3/7 activity than screen typical", "rule for the call": "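a knock-down is a hit when classed RV1 or RV2 for lowered viability, or CA1 or CA2 for caspase activation; those lethal without drug were dropped; hits were retested singly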", "note": "Here is an unselected part of about 18,000 deposited reagents. In the full data, 450 (2.5%) are marked active. 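Single biological run; no consistent viability z cut-off exists, so the class columns, not z-scores, define the calls.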 Entries without a mark were called inactive."}
The first 3 entries, ahead of the listing:
{"Target gene": "SLAMF8", "viability hit class": "no change", "caspase hit class": "no change", "viability robust z-score": -0.69, "caspase robust z-score": 1}
{"Target gene": "MRNIP", "viability hit class": "no change", "caspase hit class": "no change", "viability robust z-score": 0.08, "caspase robust z-score": 1.72}
{"Target gene": "MITD1", "viability hit class": "no change", "caspase hit class": "no change", "viability robust z-score": 1.26, "caspase robust z-score": 0.22}

Main list, repeating the preview:
{"Target gene": "SLAMF8", "viability hit class": "no change", "caspase hit class": "no change", "viability robust z-score": -0.69, "caspase robust z-score": 1}
{"Target gene": "MRNIP", "viability hit class": "no change", "caspase hit class": "no change", "viability robust z-score": 0.08, "caspase robust z-score": 1.72}
{"Target gene": "MITD1", "viability hit class": "no change", "caspase hit class": "no change", "viability robust z-score": 1.26, "caspase robust z-score": 0.22}
{"Target gene": "GLIPR1L1", "viability hit class": "no change", "caspase hit class": "no change", "viability robust z-score": 0.05, "caspase robust z-score": -0.69}
{"Target gene": "PNMA2", "viability hit class": "no change", "caspase hit class": "no change", "viability robust z-score": -0.92, "caspase robust z-score": -0.76}
{"Target gene": "PRAP1", "viability hit class": "no change", "caspase hit class": "no change", "viability robust z-score": -0.86, "caspase robust z-score": -0.03}
{"Target gene": "CHST4", "viability hit class": "no change", "caspase hit class": "no change", "viability robust z-score": 0.49, "caspase robust z-score": -0.11}
{"Target gene": "AP1S1", "viability hit class": "no change", "caspase hit class": "no change", "viability robust z-score": 0.89, "caspase robust z-score": 2.25}
{"Target gene": "LRRTM1", "viability hit class": "no change", "caspase hit class": "no change", "viability robust z-score": -0.41, "caspase robust z-score": 0.12}
{"Target gene": "PPAN", "viability hit class": "no change", "caspase hit class": "no change", "viability robust z-score": -2.66, "caspase robust z-score": 0.78}
{"Target gene": "ZFAND2A", "viability hit class": "no change", "caspase hit class": "no change", "viability robust z-score": -0.16, "caspase robust z-score": -1}
{"Target gene": "PDE11A", "viability hit class": "no change", "caspase hit class": "no change", "viability robust z-score": -0.1, "caspase robust z-score": -0.08}
{"Target gene": "SMIM29", "viability hit class": "no change", "caspase hit class": "no change", "viability robust z-score": 0.4, "caspase robust z-score": -0.4}
{"Target gene": "PAK4", "viability hit class": "no change", "caspase hit class": "no change", "viability robust z-score": 0.32, "caspase robust z-score": -0.42}
{"Target gene": "CTCF", "viability hit class": "no change", "caspase hit class": "no change", "viability robust z-score": -3.18, "caspase robust z-score": 1.28}
{"Target gene": "SOCS6", "viability hit class": "no change", "caspase hit class": "no change", "viability robust z-score": 1.04, "caspase robust z-score": -0.92}
{"Target gene": "GDNF", "viability hit class": "no change", "caspase hit class": "no change", "viability robust z-score": 0.94, "caspase robust z-score": -0.56}
{"Target gene": "STC2", "viability hit class": "no change", "caspase hit class": "no change", "viability robust z-score": 0.27, "caspase robust z-score": -0.47}
{"Target gene": "CES3", "viability hit class": "RV2 (reduced viability) (active)", "caspase hit class": "no change", "viability robust z-score": -3.85, "caspase robust z-score": 3.27}
{"Target gene": "GPR62", "viability hit class": "no change", "caspase hit class": "no change", "viability robust z-score": -0.05, "caspase robust z-score": -0.56}
{"Target gene": "CELF6", "viability hit class": "no change", "caspase hit class": "no change", "viability robust z-score": -1.03, "caspase robust z-score": 0.48}
{"Target gene": "PAIP1", "viability hit class": "no change", "caspase hit class": "no change", "viability robust z-score": 0.82, "caspase robust z-score": -0.78}
{"Target gene": "C6orf136", "viability hit class": "no change", "caspase hit class": "no change", "viability robust z-score": 0.48, "caspase robust z-score": -0.7}
{"Target gene": "CYP24A1", "viability hit class": "no change", "caspase hit class": "no change", "viability robust z-score": -0.64, "caspase robust z-score": 0.13}
{"Target gene": "CEBPE", "viability hit class": "no change", "caspase hit class": "no change", "viability robust z-score": -1.34, "caspase robust z-score": 1}
{"Target gene": "SRSF6", "viability hit class": "no change", "caspase hit class": "no change", "viability robust z-score": -1.75, "caspase robust z-score": -0.97}
{"Target gene": "ELAVL3", "viability hit class": "no change", "caspase hit class": "no change", "viability robust z-score": -4.67, "caspase robust z-score": 2.42}
